Experimental data: the supplement of paper PMC10849652
The list shows a part of the results.

Amino acid sequences for entries named in this document (tags omitted). A change or cut given only in a name is not applied to a line headed by its entry.
UniProt P11277, whole entry, looked up: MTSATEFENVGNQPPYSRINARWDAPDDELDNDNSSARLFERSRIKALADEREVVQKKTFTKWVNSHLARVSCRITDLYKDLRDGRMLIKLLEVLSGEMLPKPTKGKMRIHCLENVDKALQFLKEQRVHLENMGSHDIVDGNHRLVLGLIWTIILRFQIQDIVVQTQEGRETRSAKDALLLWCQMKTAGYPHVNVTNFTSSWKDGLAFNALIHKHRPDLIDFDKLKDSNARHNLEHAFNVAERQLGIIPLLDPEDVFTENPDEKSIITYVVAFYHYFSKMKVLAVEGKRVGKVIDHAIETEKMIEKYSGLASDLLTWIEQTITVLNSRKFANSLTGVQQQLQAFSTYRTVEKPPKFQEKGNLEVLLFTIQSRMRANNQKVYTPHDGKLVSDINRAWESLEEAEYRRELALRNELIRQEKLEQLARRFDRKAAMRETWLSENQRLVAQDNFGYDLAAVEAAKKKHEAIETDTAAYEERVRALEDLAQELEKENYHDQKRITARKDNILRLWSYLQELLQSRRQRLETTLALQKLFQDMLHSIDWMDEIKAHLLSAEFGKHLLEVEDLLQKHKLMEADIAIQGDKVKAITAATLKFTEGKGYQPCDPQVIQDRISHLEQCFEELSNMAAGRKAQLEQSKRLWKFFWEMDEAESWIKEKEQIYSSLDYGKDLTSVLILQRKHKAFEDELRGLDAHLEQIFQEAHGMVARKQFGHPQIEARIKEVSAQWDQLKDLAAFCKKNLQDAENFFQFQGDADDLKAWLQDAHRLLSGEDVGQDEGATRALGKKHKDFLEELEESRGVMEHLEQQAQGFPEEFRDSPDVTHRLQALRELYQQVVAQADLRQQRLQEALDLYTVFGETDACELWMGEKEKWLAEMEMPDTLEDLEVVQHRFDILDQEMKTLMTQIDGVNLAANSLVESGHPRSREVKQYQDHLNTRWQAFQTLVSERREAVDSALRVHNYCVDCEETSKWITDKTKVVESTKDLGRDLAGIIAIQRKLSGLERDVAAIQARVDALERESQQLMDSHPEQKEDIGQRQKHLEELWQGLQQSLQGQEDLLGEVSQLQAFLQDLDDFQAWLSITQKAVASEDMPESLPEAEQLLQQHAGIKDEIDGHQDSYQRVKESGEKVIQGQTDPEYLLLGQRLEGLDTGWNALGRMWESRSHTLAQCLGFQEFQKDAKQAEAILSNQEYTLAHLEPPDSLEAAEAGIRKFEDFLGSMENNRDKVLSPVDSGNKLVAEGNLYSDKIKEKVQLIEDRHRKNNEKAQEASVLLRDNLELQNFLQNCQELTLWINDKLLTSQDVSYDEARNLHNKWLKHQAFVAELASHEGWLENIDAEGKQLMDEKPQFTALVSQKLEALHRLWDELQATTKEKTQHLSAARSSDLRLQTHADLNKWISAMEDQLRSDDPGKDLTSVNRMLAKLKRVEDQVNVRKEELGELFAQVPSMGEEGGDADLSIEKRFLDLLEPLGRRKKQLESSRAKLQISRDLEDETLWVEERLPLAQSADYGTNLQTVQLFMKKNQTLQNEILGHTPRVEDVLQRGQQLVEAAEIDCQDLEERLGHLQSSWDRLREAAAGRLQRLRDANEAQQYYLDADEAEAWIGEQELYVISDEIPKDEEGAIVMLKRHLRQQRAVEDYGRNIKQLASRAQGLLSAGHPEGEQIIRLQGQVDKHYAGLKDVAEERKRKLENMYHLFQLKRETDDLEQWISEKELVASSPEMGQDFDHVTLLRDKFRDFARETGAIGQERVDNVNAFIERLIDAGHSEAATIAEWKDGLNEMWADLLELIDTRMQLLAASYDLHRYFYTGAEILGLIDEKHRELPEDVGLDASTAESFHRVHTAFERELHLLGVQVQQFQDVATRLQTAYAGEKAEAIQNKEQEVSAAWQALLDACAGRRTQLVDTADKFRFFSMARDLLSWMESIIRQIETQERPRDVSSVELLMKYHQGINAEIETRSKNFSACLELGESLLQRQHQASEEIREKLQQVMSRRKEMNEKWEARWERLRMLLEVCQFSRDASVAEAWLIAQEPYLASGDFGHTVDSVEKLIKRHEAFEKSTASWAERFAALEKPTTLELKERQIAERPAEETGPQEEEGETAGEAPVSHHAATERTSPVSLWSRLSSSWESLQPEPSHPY
UniProt O43805: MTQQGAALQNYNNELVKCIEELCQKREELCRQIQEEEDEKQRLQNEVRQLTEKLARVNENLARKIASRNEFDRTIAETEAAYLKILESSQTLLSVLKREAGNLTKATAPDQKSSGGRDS
UniProt P61009: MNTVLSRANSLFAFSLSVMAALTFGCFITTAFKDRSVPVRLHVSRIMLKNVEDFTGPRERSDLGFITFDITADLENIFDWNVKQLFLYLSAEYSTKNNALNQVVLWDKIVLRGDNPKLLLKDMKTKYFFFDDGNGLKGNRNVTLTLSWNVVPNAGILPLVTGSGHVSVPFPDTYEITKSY
UniProt Q9Y657, whole entry, looked up: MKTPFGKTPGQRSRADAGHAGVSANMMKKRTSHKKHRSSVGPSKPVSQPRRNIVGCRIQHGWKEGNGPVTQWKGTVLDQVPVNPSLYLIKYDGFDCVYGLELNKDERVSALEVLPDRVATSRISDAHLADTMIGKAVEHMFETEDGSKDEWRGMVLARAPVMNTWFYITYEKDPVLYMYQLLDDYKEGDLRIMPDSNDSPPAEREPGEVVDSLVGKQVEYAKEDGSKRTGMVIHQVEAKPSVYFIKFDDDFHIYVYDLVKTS
UniProt O95630, whole entry, looked up: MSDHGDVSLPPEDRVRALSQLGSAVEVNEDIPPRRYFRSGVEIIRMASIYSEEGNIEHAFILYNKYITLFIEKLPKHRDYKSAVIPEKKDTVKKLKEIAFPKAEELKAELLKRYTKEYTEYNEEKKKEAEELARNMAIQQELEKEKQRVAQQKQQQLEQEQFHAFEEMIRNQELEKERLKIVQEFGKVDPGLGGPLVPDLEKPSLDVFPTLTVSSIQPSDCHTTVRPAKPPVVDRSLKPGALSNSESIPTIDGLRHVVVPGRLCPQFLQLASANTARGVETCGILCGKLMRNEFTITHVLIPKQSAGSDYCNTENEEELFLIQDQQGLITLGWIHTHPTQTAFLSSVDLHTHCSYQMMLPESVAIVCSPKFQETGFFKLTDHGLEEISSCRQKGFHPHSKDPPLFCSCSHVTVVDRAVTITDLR
UniProt Q9HBM1: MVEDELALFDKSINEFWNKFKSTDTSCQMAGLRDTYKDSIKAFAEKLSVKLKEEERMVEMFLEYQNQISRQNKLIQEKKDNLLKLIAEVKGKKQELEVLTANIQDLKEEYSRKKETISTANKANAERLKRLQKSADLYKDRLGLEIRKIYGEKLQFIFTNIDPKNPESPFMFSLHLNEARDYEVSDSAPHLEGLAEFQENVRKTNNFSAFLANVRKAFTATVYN
UniProt Q8IYB3: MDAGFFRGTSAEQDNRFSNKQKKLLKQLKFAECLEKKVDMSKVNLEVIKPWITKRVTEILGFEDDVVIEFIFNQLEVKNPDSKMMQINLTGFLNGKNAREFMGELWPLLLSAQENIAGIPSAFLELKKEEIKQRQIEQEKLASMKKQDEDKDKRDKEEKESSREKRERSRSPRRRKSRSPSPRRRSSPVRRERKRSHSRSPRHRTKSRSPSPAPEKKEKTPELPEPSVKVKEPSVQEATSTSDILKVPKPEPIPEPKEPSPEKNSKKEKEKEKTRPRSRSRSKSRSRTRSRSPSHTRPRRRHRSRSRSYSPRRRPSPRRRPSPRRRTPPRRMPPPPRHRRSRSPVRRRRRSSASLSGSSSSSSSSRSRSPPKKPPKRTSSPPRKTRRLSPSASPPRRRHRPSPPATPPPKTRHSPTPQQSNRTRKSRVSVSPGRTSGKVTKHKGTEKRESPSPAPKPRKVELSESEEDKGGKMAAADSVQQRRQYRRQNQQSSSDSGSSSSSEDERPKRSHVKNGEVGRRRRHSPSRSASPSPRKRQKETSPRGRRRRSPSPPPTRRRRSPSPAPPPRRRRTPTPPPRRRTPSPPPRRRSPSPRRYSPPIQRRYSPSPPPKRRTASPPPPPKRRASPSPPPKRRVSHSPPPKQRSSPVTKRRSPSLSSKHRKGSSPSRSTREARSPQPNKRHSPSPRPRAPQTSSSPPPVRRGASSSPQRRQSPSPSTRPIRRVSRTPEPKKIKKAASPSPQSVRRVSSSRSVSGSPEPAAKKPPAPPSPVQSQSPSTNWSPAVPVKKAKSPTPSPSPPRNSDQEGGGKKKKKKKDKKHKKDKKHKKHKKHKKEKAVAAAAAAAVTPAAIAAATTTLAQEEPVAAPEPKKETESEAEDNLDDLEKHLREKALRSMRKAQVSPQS
UniProt Q15831: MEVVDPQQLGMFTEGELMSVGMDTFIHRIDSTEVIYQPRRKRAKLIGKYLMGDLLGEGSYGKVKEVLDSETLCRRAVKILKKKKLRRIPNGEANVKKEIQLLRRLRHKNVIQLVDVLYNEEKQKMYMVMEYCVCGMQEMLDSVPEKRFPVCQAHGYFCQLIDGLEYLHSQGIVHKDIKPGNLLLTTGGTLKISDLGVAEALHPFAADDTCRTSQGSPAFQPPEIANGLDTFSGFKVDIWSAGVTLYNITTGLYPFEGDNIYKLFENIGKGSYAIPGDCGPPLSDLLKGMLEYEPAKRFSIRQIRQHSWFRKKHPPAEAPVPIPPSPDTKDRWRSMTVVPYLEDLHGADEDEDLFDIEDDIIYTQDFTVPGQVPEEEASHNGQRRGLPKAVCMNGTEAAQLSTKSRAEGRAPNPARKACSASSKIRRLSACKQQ
UniProt P49458: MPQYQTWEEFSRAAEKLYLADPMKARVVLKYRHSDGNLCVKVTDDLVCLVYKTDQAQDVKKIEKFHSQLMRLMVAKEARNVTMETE
UniProt P16150: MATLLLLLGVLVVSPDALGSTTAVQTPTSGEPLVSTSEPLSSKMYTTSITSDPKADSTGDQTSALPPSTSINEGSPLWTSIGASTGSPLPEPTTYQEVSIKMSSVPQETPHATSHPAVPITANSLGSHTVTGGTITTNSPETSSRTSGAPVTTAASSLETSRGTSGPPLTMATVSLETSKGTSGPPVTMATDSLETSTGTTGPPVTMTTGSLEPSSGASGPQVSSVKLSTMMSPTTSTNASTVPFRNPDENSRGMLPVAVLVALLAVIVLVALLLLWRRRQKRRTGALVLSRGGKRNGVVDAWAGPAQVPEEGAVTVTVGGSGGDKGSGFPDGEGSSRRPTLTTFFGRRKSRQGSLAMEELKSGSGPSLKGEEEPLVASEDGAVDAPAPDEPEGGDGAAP
UniProt P10124: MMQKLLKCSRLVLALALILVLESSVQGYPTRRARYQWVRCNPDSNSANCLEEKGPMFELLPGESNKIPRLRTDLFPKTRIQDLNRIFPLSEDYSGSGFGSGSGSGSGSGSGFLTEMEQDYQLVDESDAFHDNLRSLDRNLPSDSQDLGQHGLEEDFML
UniProt Q96SB4, whole entry, looked up: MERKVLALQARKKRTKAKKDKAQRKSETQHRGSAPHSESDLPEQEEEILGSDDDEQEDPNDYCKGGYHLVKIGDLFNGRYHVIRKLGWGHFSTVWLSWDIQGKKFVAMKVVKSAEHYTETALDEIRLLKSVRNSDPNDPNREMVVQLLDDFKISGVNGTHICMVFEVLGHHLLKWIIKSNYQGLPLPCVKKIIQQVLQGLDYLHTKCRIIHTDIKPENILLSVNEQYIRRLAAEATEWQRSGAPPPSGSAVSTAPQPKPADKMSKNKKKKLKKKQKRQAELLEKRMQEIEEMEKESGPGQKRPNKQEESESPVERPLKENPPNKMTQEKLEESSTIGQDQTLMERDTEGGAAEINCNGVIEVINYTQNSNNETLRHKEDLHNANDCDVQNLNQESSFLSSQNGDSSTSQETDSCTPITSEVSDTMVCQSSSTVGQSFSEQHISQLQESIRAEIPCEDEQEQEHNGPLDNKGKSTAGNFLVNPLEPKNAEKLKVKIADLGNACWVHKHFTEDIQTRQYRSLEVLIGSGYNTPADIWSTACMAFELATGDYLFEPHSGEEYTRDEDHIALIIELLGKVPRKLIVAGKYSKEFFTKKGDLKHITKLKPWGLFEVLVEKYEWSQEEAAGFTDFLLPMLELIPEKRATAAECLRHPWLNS
UniProt P09132: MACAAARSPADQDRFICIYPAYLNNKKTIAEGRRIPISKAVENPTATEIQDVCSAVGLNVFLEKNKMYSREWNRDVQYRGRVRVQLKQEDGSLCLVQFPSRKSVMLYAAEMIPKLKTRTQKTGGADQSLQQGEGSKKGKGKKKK
UniProt P37108: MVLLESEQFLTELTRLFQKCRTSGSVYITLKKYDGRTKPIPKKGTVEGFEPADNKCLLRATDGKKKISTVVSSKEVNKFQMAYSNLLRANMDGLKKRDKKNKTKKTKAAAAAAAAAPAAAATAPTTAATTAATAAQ
UniProt P19623: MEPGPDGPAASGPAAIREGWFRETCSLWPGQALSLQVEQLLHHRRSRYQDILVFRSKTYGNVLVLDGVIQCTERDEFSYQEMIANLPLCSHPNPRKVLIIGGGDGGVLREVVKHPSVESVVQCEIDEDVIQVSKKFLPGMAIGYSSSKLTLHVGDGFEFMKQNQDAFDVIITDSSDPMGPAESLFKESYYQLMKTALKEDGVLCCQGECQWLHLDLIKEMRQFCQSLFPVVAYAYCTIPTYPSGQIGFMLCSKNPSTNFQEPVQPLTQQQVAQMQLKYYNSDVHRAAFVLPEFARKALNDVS

Each target was assayed with Cn1cc(-c2ccc3nnc(C(F)(F)c4ccc5ncccc5c4)n3n2)cn1 (assay: log2 fold change, soluble protein after heating vs DMSO (PISA); higher = thermal stabilisation; K562 cells, 10 uM, 30 min; active = over 0.2 and 3.5 SD of the protein, either way, in both replicates (recomputed)).
In short: (§1)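 K562 cells at 2×10^6 cells/mL were given 10 μM compound for 30 min. Aliquots then went through 3 min of heating across 48°C-58°C, were pooled, and were extracted in PBS with 0.5% NP-40 at 4°C, and the supernatant after 21,000xg for 90 min was quantified by TMTpro 16plex LC-MS/MS with channel sums equalised. Thermal stability relative to control samples, from duplicates, is given as log2 fold change.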

Row | Target | log2 fold change
1 | STAG2 (UniProt Q8N3U4) | inactive: -0.026
2 | SQLE (UniProt Q14534) | inactive: -0.029
3 | SPARC (UniProt P09486) | inactive: 0.091
4 | SPTB isoform 2 (UniProt P11277) | inactive: -0.082
5 | STAM (UniProt Q92783) | inactive: -0.014
6 | SSNA1 (UniProt O43805) | inactive: -0.033
7 | SPNS1 (UniProt Q9H2V7) | inactive: 0.099
8 | SPCS3 (UniProt P61009) | inactive: 0.002
9 | SPRYD7 (UniProt Q5W111) | inactive: 0.109
10 | ST7 (UniProt Q9NRC1) | inactive: -0.064
11 | SPTBN2 (UniProt O15020) | inactive: -0.064
12 | SPIN1 (UniProt Q9Y657) | inactive: -0.183
13 | SPCS1, A0A5F9YFS9 | inactive: 0.023
14 | ST13 (UniProt P50502) | inactive: 0.02

The targets below were run with Cn1cncc1[C@@](N)(c1ccc(Cl)cc1)c1ccc2c(c1)c(-c1cccc(Cl)c1)cc(=O)n2C [tipifarnib] in the same assay as above.
In short: as §1

Row | Target | log2 fold change
15 | SSBP1 (UniProt Q04837) | inactive: 0.1
16 | STAMBP (UniProt O95630) | inactive: -0.039
17 | SPC25 (UniProt Q9HBM1) | inactive: -0.008
18 | SRRM1 (UniProt Q8IYB3) | inactive: 0.108
19 | SSR1 (UniProt P43307) | inactive: 0.026
20 | SRRT (UniProt Q9BXP5) | inactive: -0.114
21 | STK11 (UniProt Q15831) | inactive: 0.013
22 | SPTA1 (UniProt P02549) | inactive: 0.037
23 | SPTAN1 isoform 2 (UniProt Q13813) | inactive: 0.014
24 | SRP9 (UniProt P49458) | inactive: 0.111
25 | SPN (UniProt P16150) | inactive: 0.081
26 | SPTLC2 (UniProt O15270) | inactive: 0.029
27 | SRGN (UniProt P10124) | inactive: 0.059
28 | SRPK1 (UniProt Q96SB4) | inactive: 0.144
29 | SPG7 (UniProt Q9UQ90) | inactive: 0.021
30 | SRP19 (UniProt P09132) | inactive: -0.106
31 | SPRY4 (UniProt Q9C004) | inactive: 0.03
32 | SPC24 (UniProt Q8NBT2) | inactive: -0.009
33 | STAU1 (UniProt O95793) | inactive: 0.304

Row | Target | log2 fold change
34 | SRP14 (UniProt P37108) | inactive: 0.171
35 | SRSF5 (UniProt Q13243) | inactive: 0.186
36 | SRM (UniProt P19623) | inactive: -0.069
37 | STIP1 isoform 2 (UniProt P31948) | inactive: 0.013
38 | SPATA5 (UniProt Q8NB90) | inactive: 0.024
39 | STAG2 (UniProt Q8N3U4) | inactive: -0.02
40 | SQLE (UniProt Q14534) | inactive: 0.033
41 | SPARC (UniProt P09486) | inactive: 0.045
42 | SPTB isoform 2 (UniProt P11277) | inactive: -0.023
43 | STAM (UniProt Q92783) | inactive: -0.041
44 | SSNA1 (UniProt O43805) | inactive: -0.054
45 | SPNS1 (UniProt Q9H2V7) | inactive: -0.052
46 | SPCS3 (UniProt P61009) | inactive: 0.066
47 | SPRYD7 (UniProt Q5W111) | inactive: 0.004
48 | ST7 (UniProt Q9NRC1) | inactive: 0.082
49 | SPTBN2 (UniProt O15020) | inactive: 0.033
50 | SPIN1 (UniProt Q9Y657) | inactive: -0.01
51 | SPCS1, A0A5F9YFS9 | inactive: -0.259
52 | ST13 (UniProt P50502) | inactive: -0.065
